A short description of this assay: qHTS Assay for Lipid Storage Modulators in Drosophila S3 Cells.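 As to cell number change: cells counted by Cell Tracker Red CMTPX staining in the red channel.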 The following applies: BODIPY lipid droplet fluorescence, 18-24 h; for cell number change: measured here: cell count max response, cells fed with added oleic acid. The method, boiled down: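 Laser-scanning cytometry quantifies lipid droplet accumulation (500–530 nm total intensity; droplet/cell object ratio) in oleic acid-fed (400 uM added) Drosophila S3 cells treated with a concentration series. 20 uM Triacsin C defined 100% inhibition.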
In general terms: Quantitative high-throughput screening tests each substance at several concentrations.

Where [1] appears, read: measured here: lipid fluorescence (Fed channel) AC50, cells fed with added oleic acid.
Setting [2] is: measured here: cell number channel AC50, cells fed with added oleic acid.

This is one part of the list. Further columns of the screen follow, without active or inactive calls. The list favours compounds with an active or inconclusive main result. Potencies come from curve fits of mixed quality, noted in brackets.

Take `O=C(N/C(=C\c1ccc([N+](=O)[O-])cc1)C(=O)N1CCCCC1)c1ccco1`: the cell number change was 14.6%.

With `O=S1(=O)CC(O)C(N(CCO)C(=S)Nc2ccccc2)C1` (stereo not drawn), the cell number change came to 14.3%. The AC50 under setting [1] was 0.259 µM [rising, partial curve, poor fit]. With `CCCn1c(N)c(C(=O)CN2CCc3ccccc3C2)c(=O)n(C)c1=O`, the cell number change amounted to 6.49%. In addition, under setting [1], the AC50 was 0.82 µM [rising, full curve, poor fit].

As for `CCOC(=O)C1CCN(C(=O)CNC(=O)c2nn(-c3ccc(OC)c(Cl)c3)c(=O)c3ccccc23)CC1`, the cell number change was -9.52%. The AC50 under setting [2] was 3.66 µM [falling, single point]. Further, under setting [1], the AC50 was 6.51 µM [falling, single point]. For the compound `O=C(CCN1C(=O)C2C3C=CC(C3)C2C1=O)Nc1ccccc1F` (stereo not drawn), the cell number change was determined as 2.63%. Consider `O=C1C=C(NC2CCCCC2)CCC1`, for which the cell number change stood at 23.9%. Moreover, the AC50 under setting [1] was 0.651 µM [rising, full curve, poor fit]. Turning to `Cc1ccc(C)c(-c2ccc(=O)n(Cc3c(F)cccc3Cl)n2)c1`, the cell number change was -14.9%. On the same count and under the same terms, then `COc1ccc(N2CCN(C(=O)CCN3C(=S)NC(C)(C)CC3C)CC2)cc1` (stereo not drawn), with -2.96%. `COc1ccc(OC)c(NC(=O)CN2C(=O)C(=O)N(Cc3ccccc3)C2=O)c1`: under setting [1], the AC50 is 4.61 µM [falling, full curve, poor fit]. In the case of `CC1CCCC(NC(=O)C2c3ccccc3C(=O)N2Cc2cccs2)C1C` (stereo not drawn), the cell number change was found to be 9.21%. The AC50 under setting [1] was 18.4 µM [falling, single point]. In the case of `O=C(COc1ccc(/C=N/NC(=O)c2ccncc2)cc1)Nc1cccc([N+](=O)[O-])c1`, the cell number change stood at 8.7%.

For `CN(Cc1ccc(Cl)cc1Cl)C(=O)CCNC(=O)c1ccco1`, the cell number change was determined as 13.9%. In addition, the AC50 under setting [2] was 0.13 µM [rising, full curve]. Besides, under setting [1], the AC50 is 0.411 µM [rising, full curve, poor fit]. For the compound `COC(=O)c1ccc(C2C(C(C)=O)=C(C)Nc3ncnn32)cc1` (stereo not drawn), the cell number change was determined as 2.97%. Regarding `Cc1nc([N+](=O)[O-])c(Sc2nc3ccccc3[nH]2)n1Cc1ccccc1`, the cell number change is -14.6%. Moreover, under setting [1], the AC50 was 18.4 µM [falling, single point].

As for `O=C(N/N=C/c1ccccc1O)C(=O)Nc1ccccn1`, the cell number change amounted to 5.81%. On to `CC1=NN(C(N)=S)C(=O)C1N=Nc1cccc2ccccc12` (stereo not drawn), for which the cell number change is -25.8%. Also, the AC50 under setting [1] is 32.6 µM [falling, single point]. As for `O=[N+]([O-])c1ccc(N=Nc2c(Cl)cc(O)cc2Cl)cc1`, the cell number change is -66.8%. In addition, the AC50 under setting [2] is 5.8 µM [falling, full curve]. Further, under setting [1], the AC50 is 4.61 µM [falling, full curve]. As to `O=C(NC(Nc1ccc(F)cc1)(C(F)(F)F)C(F)(F)F)c1cccnc1`, the cell number change is -43%. Besides, under setting [2], the AC50 was 1.84 µM [falling, partial curve]. Further, the AC50 under setting [1] is 9.2 µM [falling, single point]. In the case of `COc1ccc(C(CNC(=O)CN2C(=O)NC3(CCCC3)C2=O)N(C)C)cc1` (stereo not drawn), the cell number change is 12.3%. The AC50 under setting [1] is 20.6 µM [rising, single point]. With `CCS(=O)(=O)c1nc(S(=O)(=O)c2ccc(C)cc2)c(N2CCC3(CC2)OCCO3)s1`, the cell number change was -12.9%. For the same compound, under setting [1], the AC50 is 0.82 µM [rising, full curve]. As to `COc1cc(SC)ccc1C(=O)NCCc1ccccc1`, the cell number change is 27.5%. The AC50 under setting [1] was 29.1 µM [rising, single point]. For the compound `COc1cc(N=c2ssnc2Cl)cc(OC)c1OC`, the cell number change is -36.5%. Under setting [1], the AC50 is 25.9 µM [falling, partial curve, poor fit]. In the case of `Cn1c(N)c(C(=O)COC(=O)[C@H](Cc2ccccc2)N2C(=O)c3ccccc3C2=O)c(=O)n(C)c1=O`, the cell number change stood at 22.3%. Besides, the AC50 under setting [1] is 23.1 µM [rising, partial curve, poor fit]. On to `S=C(NCC1CCCO1)n1nnc2ccccc21` (stereo not drawn), for which the cell number change amounted to 21.7%. Moreover, under setting [1], the AC50 was 29.1 µM [rising, single point]. For `COc1cc2[nH]c(=O)n(CCC(=O)N3CCN(c4cccc(C)c4C)CC3)c(=O)c2cc1OC`, the cell number change stood at 14.8%. Further, the AC50 under setting [1] was 29.1 µM [rising, single point].

Consider `CCCn1c(N)c(N(CCOC)C(=O)/C=C/c2cccc(Cl)c2)c(=O)[nH]c1=O`, for which the cell number change was -13.1%. For the same compound, the AC50 under setting [2] was 3.66 µM [falling, partial curve]. Turning to `Cc1ccccc1NC(=S)NC(NC(=O)C(C)(C)C)C(Cl)(Cl)Cl` (stereo not drawn), the cell number change was -2.73%. For the same compound, the AC50 under setting [1] was 0.731 µM [falling, full curve]. For the compound `CC(C)CC(NC(N)=O)C(=O)Nc1ccc2c(c1)OCO2` (stereo not drawn), the cell number change is -9.63%. As to `Nc1nc(C(=O)N2CCOCC2)nn1S(=O)(=O)c1ccccc1`, the cell number change is 5.54%. Further, the AC50 under setting [1] is 0.206 µM [falling, full curve].

As to `CC(=O)CCC1C2C(O)C(C(C)C)C(OC(=O)/C=C/c3ccccc3)CC12C` (stereo not drawn), the cell number change came out at 8.2%. The concentration at half-maximal activity (AC50) under setting [1] was 0.731 µM [rising, full curve, poor fit]. As for `Cc1ccc(-n2ncc3c(NCc4ccccc4)ncnc32)cc1`, the cell number change came out at 0.963%. Besides, the AC50 under setting [1] is 6.51 µM [rising, single point].

Regarding `COc1ccc(N(CC(=O)NC2CCCCC2)C(=O)CCC(=O)Nc2nc(C)cs2)cc1OC`, the cell number change is -6.96%.

As to `COc1ccc(C(=O)CC(=O)c2ccccc2O)cc1OC`, the cell number change is 36.8%. In addition, under setting [2], the AC50 is 32.6 µM [rising, single point]. For the same compound, the AC50 under setting [1] is 1.84 µM [falling, partial curve].

For `C/C(=N/NC(=O)c1cn(-c2cccc(C)n2)cn1)c1ccc(C)cc1`, the cell number change is 12.1%. Moreover, under setting [1], the AC50 is 5.8 µM [rising, single point].

As to `O=C(NCCSc1ccccc1)c1cccnc1`, the cell number change was 9.33%. Moreover, under setting [1], the AC50 is 6.51 µM [falling, single point].

In the case of `O=C(COC(=O)c1ccco1)NCc1ccc(Cl)cc1`, the cell number change was -19.5%. Also, the AC50 under setting [1] was 20.6 µM [falling, single point]. On to `CCCOc1ccc(CNC(=S)Nc2ccccc2)cc1Cl`, for which the cell number change is -55.1%. Moreover, the AC50 under setting [2] was 25.9 µM [falling, single point]. Also, under setting [1], the concentration at half-maximal activity (AC50) was 20.6 µM [falling, single point]. Turning to `O=C(c1cccc(S(=O)(=O)N2CCCCCC2)c1)N1CCN(c2ccccc2)CC1`, the cell number change is 4.78%. Besides, the AC50 under setting [2] is 0.651 µM [rising, single point]. The AC50 under setting [1] is 0.092 µM [falling, full curve, poor fit].

On to `CCOC(=O)c1c(-c2ccc(C)cc2)csc1NC(=O)CCN1CC(C)OC(C)C1` (stereo not drawn), for which the cell number change was found to be 1.1%. The concentration at half-maximal activity (AC50) under setting [2] is 2.06 µM [rising, partial curve]. The AC50 under setting [1] is 2.59 µM [rising, partial curve]. Consider `CC(C)(C)NC(=O)COC(=O)c1ccccc1Nc1ccc(SC(F)F)cc1`, for which the cell number change is 4.64%. On to `S=C1NC2CCCCC2N1` (stereo not drawn), for which the cell number change was -87%. For the same compound, the AC50 under setting [2] was 29.1 µM [falling, single point]. For the same compound, the AC50 under setting [1] is 18.4 µM [falling, partial curve]. In the case of `Cc1ccccc1NC(=O)C1CC(Cl)=CCC1C(=O)O` (stereo not drawn), the cell number change was -0.977%. Under setting [1], the AC50 was 4.11 µM [rising, full curve, poor fit]. Take `Cc1ccc(S(=O)(=O)N/N=C\c2ccc3c(c2)OCO3)cc1C`: the cell number change amounted to 20.5%. Also, the AC50 under setting [1] was 20.6 µM [rising, single point]. As to `Cn1nc(-c2ccccc2F)c2cc(C(=O)Nc3ccc4c(c3)OCCO4)sc21`, the cell number change is -5.34%. Besides, under setting [1], the AC50 was 16.4 µM [rising, single point]. With `CCOC(=O)c1c(NC(=O)COC(=O)c2nc(Cl)ccc2Cl)sc(C(=O)N(C)C)c1C`, the AC50 reads like this: under setting [2], 2.91 µM [rising, single point]; under setting [1], 6.51 µM [rising, single point]. Take `COCCNc1nc(N)c([N+](=O)[O-])c(NCc2ccccc2)n1`: the cell number change was found to be 47.7%. Under setting [2], the AC50 was 29.1 µM [rising, single point].

For `COc1cc(CNC2CCCCC2OC)cc(OC)c1` (stereo not drawn), the cell number change is -6.96%. On to `Clc1ccc(OCCCCCN2CCOCC2)cc1`, for which the cell number change was -8.66%. In addition, under setting [1], the AC50 is 0.13 µM [falling, full curve, poor fit]. Turning to `Cc1nnc(SCCCn2c(N3CCCCC3)nc3c2c(=O)[nH]c(=O)n3C)s1`, the cell number change came to 96.5%. The AC50 under setting [2] was 29.1 µM [rising, partial curve, poor fit]. In addition, the AC50 under setting [1] was 29.1 µM [rising, single point]. On to `O=C(CN(C(=O)CNS(=O)(=O)c1ccc(F)cc1)c1ccccc1)NCc1ccco1`, for which the cell number change is 17.9%. The AC50 under setting [1] was 29.1 µM [rising, single point]. Turning to `Cc1cc(C)cc(OCc2nnc(SCC(=O)c3ccc(Br)cc3)o2)c1`, the cell number change was -16.8%. Further, the AC50 under setting [1] was 3.66 µM [rising, partial curve, poor fit]. For the compound `Cc1ccc(C)c(S(=O)(=O)N2CCN(C(=O)CSC(=S)N3CCCC3)CC2)c1`, the cell number change was 19.1%. Moreover, the AC50 under setting [2] was 3.66 µM [rising, single point]. Also, the AC50 under setting [1] is 6.51 µM [rising, single point]. Turning to `CCOc1ccc(-c2nc(N)ncc2Oc2cccc(OC)c2)c(O)c1`, the cell number change is -19.4%. Further, under setting [1], the AC50 is 2.06 µM [rising, partial curve].

Consider `CC1=NOC2(C1)/C(=N/O)CCC/C2=N\O` (stereo not drawn), for which the cell number change was -12.6%. In addition, the AC50 under setting [1] is 1.64 µM [falling, full curve, poor fit].

`Cc1c(C(=O)OCC(=O)N2CC(C)OC(C)C2)oc2ccc(Br)cc12` (stereo not drawn): the AC50 under setting [1] was 32.6 µM [falling, single point]. On to `Cc1occc1C(=O)NCc1ccc2c(c1)OCO2`, for which the cell number change amounted to 13.2%. The AC50 under setting [1] is 16.4 µM [rising, partial curve].

On to `O=C(O)CC(c1cccc(C(F)(F)F)c1)N1CCS(=O)(=O)CC1` (stereo not drawn), for which the cell number change is 28.8%. Besides, under setting [1], the AC50 was 1.84 µM [rising, partial curve].

As to `Cc1ccc(C)c(-c2nnc(NC(=O)Cc3ccccc3)o2)c1`, the cell number change is 27.4%. In addition, the AC50 under setting [1] was 29.1 µM [rising, single point].

For the compound `COC(=O)c1sc(N2C(=O)C(O)=C(C(=O)c3ccc(C)o3)C2c2ccc(OC)c(OC)c2)nc1C` (stereo not drawn), the cell number change was 0.578%. The AC50 under setting [1] was 0.731 µM [falling, full curve, poor fit]. As for `COc1ccc(-c2cn3c(C)c(C(=O)Nc4cccc(NC(C)=O)c4)sc3n2)cc1`, the cell number change came to 34.8%. In addition, the AC50 under setting [2] was 20.6 µM [rising, partial curve].

By AC50 is commonly meant the midpoint of the concentration-response curve, whichever way the signal moves. Read a low AC50 as greater potency.

(Values after PubChem BioAssay AID2685 (National Center for Advancing Translational Sciences (NCATS), 2010).)
